Measurements: US20060149521A1 (University of California, published 2006)
Results are given in words; binding and its absence hold for the method and conditions named. Some entries that bind do so weakly or less than the wild type. Sequences can lack the tags named with a protein.

T1: hTRβ ligand binding domain (hTRβ LBD), in vitro translated, as used in the GST-GRIP1 binding and peptide competition assays (human) (UniProt P10828)
T1 sequence ([35S]-methionine labelled (in vitro translated), looked up): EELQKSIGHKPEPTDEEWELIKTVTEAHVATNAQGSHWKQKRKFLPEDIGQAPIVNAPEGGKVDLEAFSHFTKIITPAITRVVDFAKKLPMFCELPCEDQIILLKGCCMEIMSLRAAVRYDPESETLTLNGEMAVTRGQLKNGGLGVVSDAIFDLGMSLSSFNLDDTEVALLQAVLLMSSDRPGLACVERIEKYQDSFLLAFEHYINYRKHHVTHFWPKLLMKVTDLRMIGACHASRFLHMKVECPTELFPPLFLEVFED


How the values were obtained:
[1] = target: T1, hTRβ ligand binding domain (hTRβ LBD), in vitro translated, as used in the GST-GRIP1 binding and peptide competition assays (human); assay: peptide competition of hTRβ LBD binding to GST-GRIP1 (563-767)
[2] = target: T1, hTRβ ligand binding domain (hTRβ LBD), in vitro translated, as used in the GST-GRIP1 binding and peptide competition assays (human); assay: peptide competition of TR binding to GST-GRIP1 (563-767) or its NR-box 3 mutant

| binding [1] | Binder | binding [2] |
| --- | --- | --- |
| binds | TSLKEKHKILHRLLQDS [extended NR-box 2 peptide …] |  |
| binds | KENALLRYLLDKDDTKD |  |
| binds | PKKKENALLRYLLDKDDTKD |  |
|  | ENALLRYLLDKDD [GRIP1 NR-box 3 peptide ENALLRYLLDKDD] | binds |
| binds | TSLKEKHKLLRYLLQDSS [chimeric peptide containing the NR-box 3 motif in the context of the NR-box 2 flanking sequences, …] |  |

| Binder | binding [1] | binding [2] |
| --- | --- | --- |
| EKHKILHRLLQDS (also called original NR-box 2 peptide) [GRIP1 NR-box 2 peptide EKHKILHRLLQDS] | binds | binds |
